# Reference: PubChem BioAssay AID652243 (Drosophila RNAi Screening Center, 2013)
# Aim: 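Knock-downs that decrease or increase androgen receptor reporter signal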 (primary screen)
# Cells: Drosophila S2R+ cells
# Reagent: long dsRNA against Drosophila genes
# Timing: 72 h (48 h, then 24 h hormone)
# Conditions: synthetic androgen R1881 at 10 nM for 24 h
# Detection: 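Firefly light from an androgen-responsive reporter and Renilla control light per well, raw and unnormalised, for each of two replicates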
# Direction: firefly reporter light: higher = more light from androgen-responsive reporter; Renilla control light: higher = more constitutive control signal (cell number, transfection)
# Rule for the call: 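Across duplicate plates, a knock-down whose log firefly/Renilla ratio shifted a set fold down or up from the GFP/LacZ control mean was a hit; the downward cut appears as both 1.5 and 3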
# Meaning of the calls: active = hit: reporter lowered or raised; inactive = no hit
# The deposit covers about 24,000 reagents; below is a random part of those that have a named target and a result. Over the whole deposit, 246 (1%) are marked active. 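Plates not normalised; calls are printed but the firefly/Renilla ratio behind them is not deposited; fold cut for lowering reported inconsistently.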 Raw values vary from plate to plate and are shown uncorrected. Entries without a mark were called inactive. Reagents against one gene are numbered here. Names joined by + are all predicted targets of the reagent. Not given: the amount of reagent.
target,reagent,"firefly reporter light, replicate 1","firefly reporter light, replicate 2","Renilla control light, replicate 1","Renilla control light, replicate 2"
CG43327 + CG43328,1,3.04e5,2.19e5,6.36e5,4.84e5
NimC4,1,2.09e5,55400,1.22e6,8.64e5
snoRNA:Me18S-C1280 (retired record),1,3.33e5,2.93e5,1.07e6,6.51e5
sm,1,80390,85649,2.57e5,3.21e5
sm,2,1.45e6,1.51e6,2.08e6,1.25e6
BCL7-like,1,1.53e5,1.51e5,9.09e5,8.50e5
BCL7-like,2,3.86e5,6.02e5,4.17e5,4.17e5
Psf1,1,2.73e5,2.25e5,1.93e6,2.24e6
Psf1,2,4.79e5,6.43e5,7.26e5,8.73e5
DCP2,1,74195,52413,1.07e6,4.60e5
Xpac,1,2.04e5,2.73e5,2.90e6,2.89e6
Xpac,2,5.38e5,4.22e5,1.11e6,7.88e5
CG9667,1,57570,74244,1.77e6,2.34e6
CG9667,2,6.09e5,6.75e5,8.66e5,9.32e5
CG3651,1,1.88e5,2.32e5,1.39e6,1.35e6
Rap2l,1,3.26e5,4.74e5,1.99e6,2.36e6
CG31161,1,1.38e5,88640,2.77e6,1.81e6
CG31161,2,6.43e5,7.40e5,7.58e5,7.66e5
CG30466,1,1.63e5,2.47e5,3.42e5,5.10e5
CG8197,1,3.29e5,2.61e5,2.17e6,2.21e6
CG11786,1,1.84e5,2.31e5,2.77e6,3.20e6
RpL7A,1,1.07e5,1.72e5,1.50e6,1.69e6
RpL7A,2,2.30e5,2.05e5,5.32e5,6.28e5
lush,1,3.26e5,2.22e5,2.99e6,2.07e6

Part of the list above, set out differently:
{"target":"sm","reagent":1,"firefly reporter light, replicate 1":80390,"firefly reporter light, replicate 2":85649,"Renilla control light, replicate 1":2.57e5,"Renilla control light, replicate 2":3.21e5}
{"target":"sm","reagent":2,"firefly reporter light, replicate 1":1.45e6,"firefly reporter light, replicate 2":1.51e6,"Renilla control light, replicate 1":2.08e6,"Renilla control light, replicate 2":1.25e6}
